We go through 72 molecules from the supplement of paper PMC5355238.

The structures appear in SMILES notation. Where a name gives a salt, the structure may show the parent alone. ± gives the standard deviation of the averaged measurements. This is one part of the list. Most values come without repeats; read them as rough.

For this assay, the system named is Reh. Put plainly: S-phase gammaH2AX median, Z-score vs plate median (drug alone); higher = more S-phase DNA damage. As to conditions: MK1775 concentration 0 nM; 10 µM; 4 h.
As for `CNC(=O)[C@H]1O[C@@H](n2cnc3c(NCc4ccc(N)cc4)ncnc32)[C@H](O)[C@@H]1O`, the “S-phase gammaH2AX median (Z-score)” value was -0.0718.
For `COc1cc2c(cc1O)CC[C@@H]1[C@@H]2CC[C@]2(C)[C@@H](O)CC[C@@H]12` [2-methoxyestradiol] the value was 0.18; for `COc1cc2c(cc1O)CC[C@@H]1[C@@H]2CC[C@]2(C)[C@@H](O)CC[C@@H]12` [2-Methoxyestradiol], 0.115; for `COC(=O)C1=C(C)NC(C)=C(C(=O)OC)C1c1ccccc1[N+](=O)[O-]` [Nifedipine], 0.161.
Take `CN(C)CCCN1c2ccccc2CCc2ccc(Cl)cc21` [Clomipramine hydrochloride]: the “S-phase gammaH2AX median (Z-score)” value was determined as 0.00388.
Take `NC(=O)c1ccc2nc(-c3ccc(Oc4ccc(Cl)cc4)cc3)[nH]c2c1`: the “S-phase gammaH2AX median (Z-score)” value was found to be 0.00348.
Regarding `CC(C)[C@H](C(=O)Nc1ccc(C(=O)NO)cc1)c1ccccc1`, the “S-phase gammaH2AX median (Z-score)” value came to 0.122.
With `COc1cc2c(CCNC(C)=O)c[nH]c2cc1O` [6-Hydroxymelatonin], the “S-phase gammaH2AX median (Z-score)” value is 0.148.
As for `COc1ccc(CCN(C)CCc2ccc(OC)c(OC)c2)cc1OC` [YS-035 hydrochloride], the “S-phase gammaH2AX median (Z-score)” value came out at 0.113.
`CC[N+](CC)(CC)CC` [Tetraethylammonium chloride]: the “S-phase gammaH2AX median (Z-score)” value was 0.207.
With `CC1(CN2CCC(n3c(=O)[nH]c4ccccc43)CC2)OCc2ccccc2-n2cccc21` (configuration not stated) the figure was 0.106; with `Cc1cccc(-c2[nH]c(C(C)(C)C)nc2-c2ccc3nccnc3c2)n1`, 0.0313; with `Cc1ccccc1/C=C/C1=NCCN1` [Metrazoline oxalate], -0.0733.
On to `O=c1[nH]cc(F)c(=O)[nH]1` [5-Fluorouracil], for which the “S-phase gammaH2AX median (Z-score)” value is -0.312.
For `O=c1[nH]cc(F)c(=O)[nH]1` [Adrucil (Fluorouracil)], the “S-phase gammaH2AX median (Z-score)” value was 0.0313.
`CC(C)Cc1ccc([C@H](C)C(=O)O)cc1` [S(+)-Ibuprofen]: the “S-phase gammaH2AX median (Z-score)” value is 0.18.
Turning to `N=c1ccn2c(n1)O[C@H]1[C@H](O)[C@@H](CO)O[C@H]12` [Ancitabine hydrochloride], the “S-phase gammaH2AX median (Z-score)” value turned out to be 6.23.
Consider `C[N+](C)(C)CCO.[Br-]` [Choline bromide], for which the “S-phase gammaH2AX median (Z-score)” value turned out to be 0.109.
Consider `O=C(O)Cc1ccccc1Nc1c(Cl)cccc1Cl` [Diclofenac sodium], for which the “S-phase gammaH2AX median (Z-score)” value is -0.0063.
As to `O=c1c(-c2ccc(O)cc2)coc2cc(O)cc(O)c12` [Genistein], the “S-phase gammaH2AX median (Z-score)” value stood at 0.271.
On to `C[C@H](NC(=O)Cc1cc(F)cc(F)c1)C(=O)N[C@@H]1C(=O)N(C)c2ccccc2-c2ccccc21`, for which the “S-phase gammaH2AX median (Z-score)” value is -0.0592.
On to `COC(=O)[C@H]1[C@H]2C[C@@H]3c4[nH]c5cc(OC)ccc5c4CCN3C[C@H]2C[C@@H](OC(=O)c2cc(OC)c(OC)c(OC)c2)[C@@H]1OC` [Reserpine], for which the “S-phase gammaH2AX median (Z-score)” value is -0.138.
As for `O=C(O)CN(CCOCCOCCN(CC(=O)O)CC(=O)O)CC(=O)O`, the “S-phase gammaH2AX median (Z-score)” value worked out at 0.0661.
As to `CNC(=C[N+](=O)[O-])NCCSCc1ccc(CN(C)C)o1` [Ranitidine hydrochloride], the “S-phase gammaH2AX median (Z-score)” value was 0.133.
`CC(C)C[C@H](NC(=O)[C@@H](O)[C@H](N)Cc1ccccc1)C(=O)O` [Bestatin hydrochloride]: the “S-phase gammaH2AX median (Z-score)” value turned out to be 0.0136.
Take `CC(C)C[C@H](NC(=O)[C@@H](O)[C@H](N)Cc1ccccc1)C(=O)O` [Ubenimex (Bestatin)]: the “S-phase gammaH2AX median (Z-score)” value was -0.0367.
With `O=C(O[C@@H]1Cc2c(O)cc(O)cc2O[C@@H]1c1cc(O)c(O)c(O)c1)c1cc(O)c(O)c(O)c1` [(-)-Epigallocatechin gallate], the “S-phase gammaH2AX median (Z-score)” value was -0.0452.
`CC(C)C[C@H](NC(=O)CNC(=O)c1cc(Cl)ccc1Cl)B(O)O`: the “S-phase gammaH2AX median (Z-score)” value is -0.149.
With `CC(=O)NNC(=O)N1Cc2ccccc2Oc2ccc(Cl)cc21` the figure was -0.0334.
With `CNC[C@H](O)c1cccc(O)c1` [Phenylephrine hydrochloride], the “S-phase gammaH2AX median (Z-score)” value was 0.0142.
In the case of `CCOc1ccn(-c2ccc(F)cc2)c(=O)c1C(=O)Nc1ccc(Oc2ccnc(N)c2Cl)c(F)c1`, the “S-phase gammaH2AX median (Z-score)” value is -0.00425.
`[Cl-].[Li+]` [Lithium Chloride]: the “S-phase gammaH2AX median (Z-score)” value came out at 0.0126.
Regarding `CCCCCCN(CCCCCC)C(=O)Cc1c(-c2ccc(F)cc2)[nH]c2ccccc12` [N,N-Dihexyl-2-(4-fluorophenyl)indole-3-acetamide], the “S-phase gammaH2AX median (Z-score)” value was 0.0882.
With `CCN(CC)CCNC(=O)c1ccc(NC(C)=O)cc1` [N-Acetylprocainamide hydrochloride] the figure was 0.0874; with `CO[C@H]1C[C@@H]2CC[C@@H](C)[C@@](O)(O2)C(=O)C(=O)N2CCCC[C@H]2C(=O)O[C@H]([C@H](C)C[C@@H]2CC[C@@H](O)[C@H](OC)C2)CC(=O)[C@H](C)/C=C(\C)[C@@H](O)[C@@H](OC)C(=O)[C@H](C)C[C@H](C)/C=C/C=C/C=C/1C` [Rapamycin (Sirolimus)], -0.0885.
As to `Oc1ccc(Nc2nc(-c3ccc(Cl)cc3)cs2)cc1`, the “S-phase gammaH2AX median (Z-score)” value is -0.0367.
For the molecule `CNc1cc(NS(=O)(=O)c2ccc(N)cc2)nc(NC)n1` [Ro 04-6790 dihydrochloride], the “S-phase gammaH2AX median (Z-score)” value was 0.254.
With `Nc1ncnc2c1ncn2C1OC(C(=O)NC2CC2)C(O)C1O` (configuration not stated) [5'-(N-Cyclopropyl)carboxamidoadenosine], the “S-phase gammaH2AX median (Z-score)” value amounted to 0.0524.
For the molecule `CC(=O)N1CCN(c2ccc(OCC3COC(Cn4ccnc4)(c4ccc(Cl)cc4Cl)O3)cc2)CC1` (configuration not stated) [Ketoconazole], the “S-phase gammaH2AX median (Z-score)” value is -0.0661.
With `CC1=C(C)C(=O)C(CCCCC#CCCCC#CCO)=C(C)C1=O`, the “S-phase gammaH2AX median (Z-score)” value came to 0.0466.
For `CC(C)NCC(O)c1ccc(NS(C)(=O)=O)cc1` (configuration not stated) [(?)-Sotalol hydrochloride] the value was 0.1; for `CC(N)(C(=O)O)c1ccc(C(=O)O)cc1` (stereo not drawn) [(?)-alpha-Methyl-4-carboxyphenylglycine], 0.116.
Take `CC#CCOC(=O)c1c(C)nc2sc3c(c2c1N)CCC(O)C3` (configuration not stated): the “S-phase gammaH2AX median (Z-score)” value is -0.0467.
Turning to `C[C@@H]1O[C@@H]1P(=O)(O)O` [Phosphomycin disodium], the “S-phase gammaH2AX median (Z-score)” value was -0.0473.
Regarding `Cn1c(=O)c2[nH]c(-c3ccc(S(=O)(=O)O)cc3)nc2n(C)c1=O` [8-(p-Sulfophenyl)theophylline], the “S-phase gammaH2AX median (Z-score)” value is -0.0641.
For `C[C@]12C=CC(=O)C=C1CC[C@@H]1C2=CC[C@]2(C)[C@@H](C(=O)CN3CCN(c4cc(N5CCCC5)nc(N5CCCC5)n4)CC3)CC[C@@H]12`, the “S-phase gammaH2AX median (Z-score)” value turned out to be 0.0868.
For `O=C(O)C1=CCNCC1` [Isoguvacine hydrochloride], the “S-phase gammaH2AX median (Z-score)” value turned out to be 0.148.
Take `CCC1=C[C@@H]2CN(C1)Cc1c([nH]c3ccccc13)[C@@](C(=O)OC)(c1cc3c(cc1OC)N(C)[C@H]1[C@@](O)(C(=O)OC)[C@H](OC(C)=O)[C@]4(CC)C=CCN5CC[C@]31[C@@H]54)C2` [Vinorelbine (Navelbine)]: the “S-phase gammaH2AX median (Z-score)” value was -0.0321.
Consider `CCn1cc(C(=O)O)c(=O)c2cc(F)c(N3CCNC(C)C3)c(F)c21` (configuration not stated) [Lomefloxacin hydrochloride], for which the “S-phase gammaH2AX median (Z-score)” value is -0.189.
`NC(=O)c1cc[n+](CC2=C(C(=O)O)N3C(=O)[C@@H](NC(=O)C(c4ccccc4)S(=O)(=O)[O-])[C@H]3SC2)cc1` (some centres not stated) [Cefsulodin sodium salt hydrate]: the “S-phase gammaH2AX median (Z-score)” value amounted to 0.0796.
As for `CS(=O)(=O)Nc1ccc([N+](=O)[O-])cc1Oc1ccccc1` [Nimesulide], the “S-phase gammaH2AX median (Z-score)” value was determined as 0.00473.
Turning to `CCc1c2c(nc3ccc(OC(=O)N4CCC(N5CCCCC5)CC4)cc13)-c1cc3c(c(=O)n1C2)COC(=O)[C@]3(O)CC` [Irinotecan HCl Trihydrate (Campto)], the “S-phase gammaH2AX median (Z-score)” value amounted to 2.68.
With `CNCCC=C1c2ccccc2CCc2ccccc21` [Nortriptyline hydrochloride], the “S-phase gammaH2AX median (Z-score)” value was -0.0851.
For `O=c1onc2n1-c1cc(Br)ccc1OC2` the value was -0.0473; for `CCC[C@H](NC(=O)/C(C#N)=C/c1cccc(Br)n1)c1ccccc1`, 2.99.
With `Cc1ccc(/C(=C\CN2CCCC2)c2ccccn2)cc1` [Triprolidine hydrochloride] the figure was 0.22.
Regarding `NC(=O)c1ncn([C@@H]2O[C@H](CO)[C@@H](O)[C@H]2O)c1O` [Mizoribine], the “S-phase gammaH2AX median (Z-score)” value was determined as 0.102.
As for `Nc1ncnc2c1ncn2[C@@H]1O[C@H](COP(=O)(O)CP(=O)(O)OP(=O)(O)O)[C@H](O)C1O` (stereo partly drawn) [alpha,beta-Methylene adenosine 5'-triphosphate dilithium], the “S-phase gammaH2AX median (Z-score)” value is -0.026.
For the molecule `CCOc1cc2ncc(C#N)c(Nc3ccc(OCc4ccccn4)c(Cl)c3)c2cc1NC(=O)/C=C/CN(C)C` [Neratinib (HKI-272)], the “S-phase gammaH2AX median (Z-score)” value is -0.0885.
With `N#CC(c1ccnc(NCCc2cccnc2)n1)c1nc2ccccc2s1` (configuration not stated) [JNK Inhibitor V] the figure was -0.0375; with `CN(N=O)C(=O)N[C@@H](C=O)[C@@H](O)[C@H](O)[C@H](O)CO` [Streptozotocin (Zanosar)], 0.0259.
For `Cn1cc(C2=C(c3ccc(Cl)cc3Cl)C(=O)NC2=O)c2ccccc21`, the “S-phase gammaH2AX median (Z-score)” value is 0.09232 ± 0.00011.
For `Cc1ccc(C(=O)Nc2ccc(S(=O)(=O)O)c3cc(S(=O)(=O)O)cc(S(=O)(=O)O)c23)cc1NC(=O)c1cccc(NC(=O)Nc2cccc(C(=O)Nc3cc(C(=O)Nc4ccc(S(=O)(=O)O)c5cc(S(=O)(=O)O)cc(S(=O)(=O)O)c45)ccc3C)c2)c1` [Suramin hexasodium] the value was -0.327.
For `CNCC[C@H](Oc1ccc(C(F)(F)F)cc1)c1ccccc1` [S-(+)-Fluoxetine hydrochloride] the value was -0.239; for `CC(=O)OCC(=O)[C@@]1(O)CC[C@H]2[C@@H]3CCC4=CC(=O)CC[C@]4(C)[C@H]3C(=O)C[C@@]21C` [Cortisone 21-acetate], -0.0194; for `Cn1cc(C(=O)OCC2CCN(CCNS(C)(=O)=O)CC2)c2ccccc21`, -0.0447.
With `O=C1c2c(O)cc(O)cc2OC(c2ccc(O)c(O)c2)C1O` (configuration not stated) [(?)-Taxifolin], the “S-phase gammaH2AX median (Z-score)” value was -0.214.
Take `O=C1c2ccccc2C(=O)c2c(NCCc3ccc(O)cc3)ccc(NCCc3ccc(O)cc3)c21`: the “S-phase gammaH2AX median (Z-score)” value came to 0.136.
Turning to `Cc1nc(N=Nc2ccc(C(=O)O)cc2)c(COP(=O)(O)O)c(C=O)c1O`, the “S-phase gammaH2AX median (Z-score)” value was 0.0426.
Regarding `C[C@H]1C[C@H]2[C@@H]3CCC4=CC(=O)C=C[C@]4(C)[C@@]3(Cl)[C@@H](O)C[C@]2(C)[C@@]1(O)C(=O)CO` [Beclomethasone], the “S-phase gammaH2AX median (Z-score)” value was -0.068.
With `COc1cc2nc(N3CCN(C(=O)C4CCCO4)CC3)nc(N)c2cc1OC` (configuration not stated) [Terazosin hydrochloride] the figure was 0.04; with `Oc1ccc(O)cc1` [Hydroquinone], -0.523.
